42 sequences from PMC7819943, “Rice protein-binding microarrays: a tool to detect cis-acting elements near promoter regions in rice” can be followed below.

Chains of the proteins cited; added tags and fusions are not shown.
UniProt Q0JBA9, entry or part of it: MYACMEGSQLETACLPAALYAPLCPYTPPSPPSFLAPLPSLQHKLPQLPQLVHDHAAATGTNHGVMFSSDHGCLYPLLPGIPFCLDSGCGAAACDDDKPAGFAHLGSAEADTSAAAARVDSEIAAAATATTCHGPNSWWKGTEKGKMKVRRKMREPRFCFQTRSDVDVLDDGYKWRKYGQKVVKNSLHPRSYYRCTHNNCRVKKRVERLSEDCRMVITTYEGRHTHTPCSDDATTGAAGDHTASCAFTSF

The other results are listed elsewhere or left out.

This experiment deals with OsWRKY34 (Oryza sativa, UniProt Q0JBA9 1-250). Put plainly: protein-binding microarray (RPBM); PBS, 2% BSA, 51.3 ng/ul salmon testes DNA, 50 uM zinc acetate, 200 nM TF, 25 C, 1 h; high values mean tight binding. As to conditions: protein: recombinant; tags: N-terminal polyhistidine and DsRed monomer fusion (pET32a); label: CyDye5-dUTP incorporated in the synthesized complementary strand; 3' TTTTT single-stranded linker to array surface; dsDNA, one strand shown. The method in brief:
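In PBS with 2% BSA, salmon testes DNA and 50 µM zinc acetate, 200 nM protein was incubated on a custom Agilent array at 25 °C for 1 h and then washed off. The array had been made double-stranded by primer extension with Cy5-dUTP and blocked with 2% BSA. The proteins were transcription factors fused N-terminally to polyhistidine and DsRed, expressed in E. coli BL21-CodonPlus and purified on Ni–NTA. The binding signal is per-feature fluorescence intensity (arbitrary units) from an Axon 4000B scanner.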
As for “TGACTGACCGCATCCTCGTCGTCGTTTTCATCAGATGCTGCGGAGTCACCTAGTGCAG”, the binding signal was 9510 fluorescence intensity (a.u.). For the sequence “AGGATCCTGGTTGCGAAAATTTCTGGTCCACATTGACATTCGGAGTCACCTAGTGCAG”, the binding signal is 9090 fluorescence intensity (a.u.). Consider “GTGTTTCATTCTCTTGTTTTCCTACTTAACGCTTCTAGTTCGGAGTCACCTAGTGCAG”, for which the binding signal is 8260 fluorescence intensity (a.u.).

With “AGTACTTACATTCAGTCTCCATTTTGCACAAAAGCATTTGCGGAGTCACCTAGTGCAG”, the binding signal was 8090 fluorescence intensity (a.u.). For “GGTTAAACATATTTAAAAAAAAGTCAACGACGTCATATATCGGAGTCACCTAGTGCAG”, the binding signal is 14200 fluorescence intensity (a.u.). For the sequence “TAATGCCTTTTTTTTTTTTGAATGCCGGCTTAGCTCATTTCGGAGTCACCTAGTGCAG”, the binding signal is 9440 fluorescence intensity (a.u.). Regarding “TTCCGCCCGAAGTCTCCACGCTCCCGTGTCCCATTTAAAACGGAGTCACCTAGTGCAG”, the binding signal was 9690 fluorescence intensity (a.u.). As to “CATACCGCATGTCAATCTTCTTACTCTAGCATTCCTCGTCCGGAGTCACCTAGTGCAG”, the binding signal is 9520 fluorescence intensity (a.u.). As to “GGGTGTGGGATTTTTTGGTAAGTCATCTCTGACGGCTATACGGAGTCACCTAGTGCAG”, the binding signal was 11000 fluorescence intensity (a.u.).

In the case of “AATACGCGCACGTTTCACACGTTTTCTTCGCGCCCCACTCCGGAGTCACCTAGTGCAG”, the binding signal was 12400 fluorescence intensity (a.u.).

Regarding “CAAATATTTACTCATAAATTATTTTTGATGCTTGCTCGTTCGGAGTCACCTAGTGCAG”, the binding signal was 8110 fluorescence intensity (a.u.).

As to “GAGAGACTTAGTTTGACTTGCATTCCCTGACTAGCTAGCTCGGAGTCACCTAGTGCAG”, the binding signal is 8120 fluorescence intensity (a.u.). For the sequence “ACGTTATGTGTGGTGGGGATAAGTGACAGTGTGGCAGGAACGGAGTCACCTAGTGCAG”, the binding signal was 8590 fluorescence intensity (a.u.). For “ATTGTTCATCGTCTGTCGTCTCTACAGCATTAGAGGACATCGGAGTCACCTAGTGCAG”, the binding signal was 8900 fluorescence intensity (a.u.). In the case of “GAGGATGGGTGGGCAGTGGCGCAAGGGTTTTATCCAAGCTCGGAGTCACCTAGTGCAG” it was 10400 fluorescence intensity (a.u.). For the sequence “TTTATTTGAAATTTTAAACATCTTCCATATATGTTTTTTTCGGAGTCACCTAGTGCAG”, the binding signal is 9010 fluorescence intensity (a.u.). On to “TTTCTTACTCACATAAACTTCCAACTTTTCCGTCACATCGCGGAGTCACCTAGTGCAG”, for which the binding signal was 8980 fluorescence intensity (a.u.). Take “GATCGTGGTAACAAGACCACTTACAATGTCATGTTGCGTTCGGAGTCACCTAGTGCAG”: the binding signal is 8150 fluorescence intensity (a.u.). With “TCCTATTTTTGTGGAATCGGACATATTCTTTTTTTTTCCCCGGAGTCACCTAGTGCAG”, the binding signal was 10500 fluorescence intensity (a.u.). In the case of “TTTTCCTTGTACTATGGAGGAGTACTATTTTCTTTCTTTTCGGAGTCACCTAGTGCAG”, the binding signal is 8210 fluorescence intensity (a.u.). Under “TTCTCTTTTCAACTCAACCATTTTTACTTAGTCTATTAATCGGAGTCACCTAGTGCAG” stands 8420 fluorescence intensity (a.u.); under “GATTTTTTAATGCAGGGTAGCAACATGTGGGCATATTTATCGGAGTCACCTAGTGCAG”, 8530 fluorescence intensity (a.u.); under “TTCTTGATATTCATCGGATCATTAGCCTCTGTTGCTTGCTCGGAGTCACCTAGTGCAG”, 8250 fluorescence intensity (a.u.).

As for “TAACACCCAACACTTACACTCTGGCATTTTGGAGGTCTTGCGGAGTCACCTAGTGCAG”, the binding signal was 8990 fluorescence intensity (a.u.).

“ATTTCCCCTGAACTCTACGTTTACAGGTTATGGTTATCTCCGGAGTCACCTAGTGCAG”: the binding signal is 8350 fluorescence intensity (a.u.). On to “ATCCTCTCCTTGACTTCCTACGAAGATTAATCTATCCTTCCGGAGTCACCTAGTGCAG”, for which the binding signal is 8040 fluorescence intensity (a.u.).

As to “ATTCCTCGTCTCGCTTCGCTCTTGCTCTTGACTCCGCTCTCGGAGTCACCTAGTGCAG”, the binding signal is 11500 fluorescence intensity (a.u.). In the case of “TTCTCTATCTAGCCCTCTTTCCATCATCTTTGGCACCTGCCGGAGTCACCTAGTGCAG”, the binding signal was 8750 fluorescence intensity (a.u.). In the case of “CACAAGCTGCAATTAGCCGAAATCCTCCGTATATTTCACCCGGAGTCACCTAGTGCAG” it was 8360 fluorescence intensity (a.u.); in that of “TCTGGTTTTGCGGTTCAGTGCCACGGATTAGATTCATGTTCGGAGTCACCTAGTGCAG”, 9060 fluorescence intensity (a.u.); in that of “ACTCTCTACACTAATATGACCAGAGCAGGATTATACTTTTCGGAGTCACCTAGTGCAG”, 12200 fluorescence intensity (a.u.). As to “CTGTTGTTATACATTATACCTATGAGCGTGTTTGGTTACCCGGAGTCACCTAGTGCAG”, the binding signal is 9180 fluorescence intensity (a.u.). Consider “GTCTTGGGCACCTCGCGTTTCACACTTTTCTTCTGTACCACGGAGTCACCTAGTGCAG”, for which the binding signal was 11800 fluorescence intensity (a.u.). Consider “ATCGTCTCCTACCTCGCCTCTCTTTCCTTTTTTCCGTCGACGGAGTCACCTAGTGCAG”, for which the binding signal was 11900 fluorescence intensity (a.u.). As to “GCATACGCTTCTCGTCTGGCTATATATTAGTATTACAAAACGGAGTCACCTAGTGCAG”, the binding signal was 9640 fluorescence intensity (a.u.). For “TGCTTGAATGGTGCTCCACTTGCATTGACTTTCGGCGGCGCGGAGTCACCTAGTGCAG”, the binding signal is 9050 fluorescence intensity (a.u.). “TTTTTTTACTGGGAGATTTTTTTTCTTTTTCTACTGGAGTCGGAGTCACCTAGTGCAG”: the binding signal is 10100 fluorescence intensity (a.u.).

With “TCGCCAAGCCACCTCCGCCGCCGAAGCCACCACCGCTTCCCGGAGTCACCTAGTGCAG”, the binding signal was 8550 fluorescence intensity (a.u.).

Consider “CCGTTCGTCTTATTTAATTTTTTTTGTGATTAGTATTTTTCGGAGTCACCTAGTGCAG”, for which the binding signal is 10300 fluorescence intensity (a.u.).

As for “CGCTGCCGCCGCCCTGTCGCACCGTCCCCGCCATCCGCTACGGAGTCACCTAGTGCAG”, the binding signal is 10100 fluorescence intensity (a.u.).

Turning to “TTTGGTTTGCGGCCTAAATTGCCTTACCAATTTTTGTCAACGGAGTCACCTAGTGCAG”, the binding signal is 9740 fluorescence intensity (a.u.). Regarding “CGCACGGGTGCCATGTCCAACGTCCGTCATTGATTATGCCCGGAGTCACCTAGTGCAG”, the binding signal is 8640 fluorescence intensity (a.u.).
